Assay results from patent US9216991B2 (Ares Trading S.A., priority 2012, dated 2015).

Protein sequences, listed by entry. Tags and fused reporters are not part of them.
UniProt Q9NWZ3, whole entry: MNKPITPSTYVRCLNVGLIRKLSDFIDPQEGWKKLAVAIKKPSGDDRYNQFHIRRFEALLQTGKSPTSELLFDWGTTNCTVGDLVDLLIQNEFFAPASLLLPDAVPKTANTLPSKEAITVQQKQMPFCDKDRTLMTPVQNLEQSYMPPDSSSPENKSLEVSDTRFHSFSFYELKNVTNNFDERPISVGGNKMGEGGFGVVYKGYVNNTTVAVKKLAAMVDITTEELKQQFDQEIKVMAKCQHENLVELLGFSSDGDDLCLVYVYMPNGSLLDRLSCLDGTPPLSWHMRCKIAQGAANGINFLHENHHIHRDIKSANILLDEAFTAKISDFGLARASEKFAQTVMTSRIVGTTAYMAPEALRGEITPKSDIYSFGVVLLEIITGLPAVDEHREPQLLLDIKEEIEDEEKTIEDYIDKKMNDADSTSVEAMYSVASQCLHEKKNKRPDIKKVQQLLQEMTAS

Biological target: IRAK4 (Homo sapiens, UniProt Q9NWZ3)
Assay: IRAK4 Enzymatic Assay
Details: read-out: IRAK4 IC50; His-TEV-IRAK4 20 ng/well, ATP 2 μM, STK1-biotin peptide 300 nM, 3 hours at 30° C., FlashPlate radioactivity
Description: IRAK4 is a human purified recombinant enzyme (His-TEV-IRAK1 (194-712)
IRAK4 hydrolyses ATP, autophosphorylates and phosphorylates a Serine/Threonine generic peptidic substrate (STK: 61ST1BLC from CisBio International based in Bagnols/Cèze FR).
Measurement of IRAK-4 inhibition is performed in streptavidin coated 384 well FlashPlate (PerkinElmer #SMP410A). His-TEV-IRAK4 (20 ng/well), ATP (2 μM, [^33P]ATP 0.25 μCi/well), STK1-biotin peptide (300 nM) and compounds in DMSO (range of concentrations from 20 μM to 1nM) or controls (2% DMSO) are incubated for 3 hours at 30° C. in assay buffer: Hepes pH7.0 50 mM, Fatty acid-free BSA 0.1%, Dithiothreitol DTT 2 mM, MgCl2 10 mM, EGTA 0.5 mM, Tween-20 0.01%, MnCl2 5 mM.
Kinase reaction is stopped by addition of EDTA. Supernatant is discarded, plates are washed three times with 150 mM NaCl and radioactivity is then measured in a Microbeta Trilux reader.

Cn1cc(-c2cccc(-c3ncc(-c4cnn(CC(=O)NC(C)(C)CO)c4)cn3)c2)cn1
IC50: 1000 to 5000 nM

Structures were worked out from names or drawings and are uncertain.
